In publication doi:10.1101/843383 one finds binding data, which are given here for 2 substances.

Amino acid sequences for entries named in this document (tags omitted).
UniProt P07548: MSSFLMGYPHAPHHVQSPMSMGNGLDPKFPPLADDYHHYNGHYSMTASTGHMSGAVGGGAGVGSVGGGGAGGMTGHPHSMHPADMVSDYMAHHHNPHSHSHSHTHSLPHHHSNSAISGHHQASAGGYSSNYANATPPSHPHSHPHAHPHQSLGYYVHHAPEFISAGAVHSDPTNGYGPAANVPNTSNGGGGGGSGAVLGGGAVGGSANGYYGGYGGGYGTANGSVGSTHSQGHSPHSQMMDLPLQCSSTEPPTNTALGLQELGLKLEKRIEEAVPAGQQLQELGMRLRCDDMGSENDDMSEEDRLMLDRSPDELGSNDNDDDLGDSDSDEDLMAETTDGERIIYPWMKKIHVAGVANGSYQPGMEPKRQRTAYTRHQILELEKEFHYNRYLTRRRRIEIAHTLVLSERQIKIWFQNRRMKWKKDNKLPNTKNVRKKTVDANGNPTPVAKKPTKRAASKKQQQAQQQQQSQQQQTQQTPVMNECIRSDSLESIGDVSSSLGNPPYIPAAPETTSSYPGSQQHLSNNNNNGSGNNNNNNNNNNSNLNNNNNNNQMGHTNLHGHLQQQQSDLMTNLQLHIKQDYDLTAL
UniProt P09077: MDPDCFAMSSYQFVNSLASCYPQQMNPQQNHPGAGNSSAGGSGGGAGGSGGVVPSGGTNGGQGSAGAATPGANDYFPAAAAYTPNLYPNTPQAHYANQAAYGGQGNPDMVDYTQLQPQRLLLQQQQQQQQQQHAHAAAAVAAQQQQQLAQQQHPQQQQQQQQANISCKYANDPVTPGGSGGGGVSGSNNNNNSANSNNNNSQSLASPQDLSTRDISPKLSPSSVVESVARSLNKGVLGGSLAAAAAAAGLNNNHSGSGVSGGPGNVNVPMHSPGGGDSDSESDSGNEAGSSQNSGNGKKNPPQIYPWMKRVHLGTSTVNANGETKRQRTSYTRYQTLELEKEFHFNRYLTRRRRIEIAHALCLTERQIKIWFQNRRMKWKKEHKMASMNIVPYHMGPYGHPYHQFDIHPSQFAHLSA
UniProt Q9TVM2: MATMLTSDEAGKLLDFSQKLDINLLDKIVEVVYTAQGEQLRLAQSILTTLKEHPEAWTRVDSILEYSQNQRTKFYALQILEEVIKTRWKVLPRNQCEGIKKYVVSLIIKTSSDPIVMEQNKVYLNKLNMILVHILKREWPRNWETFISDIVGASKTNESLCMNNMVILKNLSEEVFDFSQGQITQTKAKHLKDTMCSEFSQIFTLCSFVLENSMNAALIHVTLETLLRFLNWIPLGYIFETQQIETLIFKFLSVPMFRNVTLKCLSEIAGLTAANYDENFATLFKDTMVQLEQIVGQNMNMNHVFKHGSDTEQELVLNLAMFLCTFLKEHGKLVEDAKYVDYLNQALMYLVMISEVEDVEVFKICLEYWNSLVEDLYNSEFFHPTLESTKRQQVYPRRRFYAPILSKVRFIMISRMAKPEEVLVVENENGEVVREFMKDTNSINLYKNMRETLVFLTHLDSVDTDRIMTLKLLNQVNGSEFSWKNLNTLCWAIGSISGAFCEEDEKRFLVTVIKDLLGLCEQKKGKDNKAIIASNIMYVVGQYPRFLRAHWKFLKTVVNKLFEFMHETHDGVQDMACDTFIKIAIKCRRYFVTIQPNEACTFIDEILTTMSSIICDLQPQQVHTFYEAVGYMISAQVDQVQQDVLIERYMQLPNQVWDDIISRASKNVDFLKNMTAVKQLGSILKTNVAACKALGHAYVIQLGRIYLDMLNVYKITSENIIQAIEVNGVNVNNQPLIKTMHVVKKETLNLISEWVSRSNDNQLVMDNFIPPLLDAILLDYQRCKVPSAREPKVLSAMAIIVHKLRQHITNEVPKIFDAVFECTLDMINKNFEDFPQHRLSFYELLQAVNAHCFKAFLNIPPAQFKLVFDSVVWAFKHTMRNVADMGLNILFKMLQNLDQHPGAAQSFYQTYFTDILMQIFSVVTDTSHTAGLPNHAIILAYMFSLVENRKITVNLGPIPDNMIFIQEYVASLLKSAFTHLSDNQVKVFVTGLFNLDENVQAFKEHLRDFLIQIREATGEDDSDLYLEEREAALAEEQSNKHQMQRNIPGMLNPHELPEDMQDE

No constants are given. Whether binding was seen depends on the method and setting. In cells and extracts the contact can be indirect. Some binding calls cover weakened binding; strength is not graded here.

The target of assay [1] is VN-Dfd (Deformed fused to the N-terminal fragment of Venus) (Drosophila) (UniProt P07548). Description: split reporter.
For assay [2], the target named is VC-Scr (Sex combs reduced fused to the C-terminal fragment of Venus) (Drosophila) (UniProt P09077). Description: split reporter.

On to “VC-Emb (Embargoed fused to the C-terminal fragment of Venus), in embryos (from UniProt Q9TVM2 1-1063)”, for which, in assay [1], the binding entry was “binds”.

Take “VN-Emb (Embargoed fused to the N-terminal fragment of Venus) (from UniProt Q9TVM2 1-1063)”: in assay [2], the binding entry was “binds”.
